Our source for the binding values is paper PMC10445738.

The chains behind the UniProt entries cited, without tags or fusion partners. Where a name states a change or a piece, a line headed by the entry shows the natural chain unless it says otherwise. Residues count along the entry.
UniProt Q96BN8: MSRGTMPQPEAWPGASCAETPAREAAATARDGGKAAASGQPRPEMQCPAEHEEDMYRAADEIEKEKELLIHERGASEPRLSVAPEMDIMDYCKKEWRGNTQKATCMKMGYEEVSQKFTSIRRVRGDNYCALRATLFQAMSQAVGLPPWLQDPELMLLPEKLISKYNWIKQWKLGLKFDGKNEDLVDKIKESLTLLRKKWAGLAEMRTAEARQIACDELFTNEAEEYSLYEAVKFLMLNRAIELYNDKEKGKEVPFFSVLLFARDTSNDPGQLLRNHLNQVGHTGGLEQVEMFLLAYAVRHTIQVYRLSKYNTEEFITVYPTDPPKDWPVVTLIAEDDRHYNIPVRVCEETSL
FLAG-OTULIN^C105X: residues 1-105 of Q96BN8
FLAG-OTULIN^Δ54: residues 55-352 of Q96BN8
UniProt Q15599: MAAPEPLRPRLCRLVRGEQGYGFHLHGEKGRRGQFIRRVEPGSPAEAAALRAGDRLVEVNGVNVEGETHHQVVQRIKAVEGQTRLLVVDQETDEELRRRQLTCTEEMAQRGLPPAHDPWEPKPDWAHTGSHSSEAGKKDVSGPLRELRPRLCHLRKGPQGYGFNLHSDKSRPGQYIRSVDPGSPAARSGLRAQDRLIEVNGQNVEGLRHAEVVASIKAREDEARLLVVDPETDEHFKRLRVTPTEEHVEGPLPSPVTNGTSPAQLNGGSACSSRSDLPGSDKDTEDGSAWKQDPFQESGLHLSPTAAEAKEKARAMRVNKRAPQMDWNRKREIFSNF
UniProt Q14160: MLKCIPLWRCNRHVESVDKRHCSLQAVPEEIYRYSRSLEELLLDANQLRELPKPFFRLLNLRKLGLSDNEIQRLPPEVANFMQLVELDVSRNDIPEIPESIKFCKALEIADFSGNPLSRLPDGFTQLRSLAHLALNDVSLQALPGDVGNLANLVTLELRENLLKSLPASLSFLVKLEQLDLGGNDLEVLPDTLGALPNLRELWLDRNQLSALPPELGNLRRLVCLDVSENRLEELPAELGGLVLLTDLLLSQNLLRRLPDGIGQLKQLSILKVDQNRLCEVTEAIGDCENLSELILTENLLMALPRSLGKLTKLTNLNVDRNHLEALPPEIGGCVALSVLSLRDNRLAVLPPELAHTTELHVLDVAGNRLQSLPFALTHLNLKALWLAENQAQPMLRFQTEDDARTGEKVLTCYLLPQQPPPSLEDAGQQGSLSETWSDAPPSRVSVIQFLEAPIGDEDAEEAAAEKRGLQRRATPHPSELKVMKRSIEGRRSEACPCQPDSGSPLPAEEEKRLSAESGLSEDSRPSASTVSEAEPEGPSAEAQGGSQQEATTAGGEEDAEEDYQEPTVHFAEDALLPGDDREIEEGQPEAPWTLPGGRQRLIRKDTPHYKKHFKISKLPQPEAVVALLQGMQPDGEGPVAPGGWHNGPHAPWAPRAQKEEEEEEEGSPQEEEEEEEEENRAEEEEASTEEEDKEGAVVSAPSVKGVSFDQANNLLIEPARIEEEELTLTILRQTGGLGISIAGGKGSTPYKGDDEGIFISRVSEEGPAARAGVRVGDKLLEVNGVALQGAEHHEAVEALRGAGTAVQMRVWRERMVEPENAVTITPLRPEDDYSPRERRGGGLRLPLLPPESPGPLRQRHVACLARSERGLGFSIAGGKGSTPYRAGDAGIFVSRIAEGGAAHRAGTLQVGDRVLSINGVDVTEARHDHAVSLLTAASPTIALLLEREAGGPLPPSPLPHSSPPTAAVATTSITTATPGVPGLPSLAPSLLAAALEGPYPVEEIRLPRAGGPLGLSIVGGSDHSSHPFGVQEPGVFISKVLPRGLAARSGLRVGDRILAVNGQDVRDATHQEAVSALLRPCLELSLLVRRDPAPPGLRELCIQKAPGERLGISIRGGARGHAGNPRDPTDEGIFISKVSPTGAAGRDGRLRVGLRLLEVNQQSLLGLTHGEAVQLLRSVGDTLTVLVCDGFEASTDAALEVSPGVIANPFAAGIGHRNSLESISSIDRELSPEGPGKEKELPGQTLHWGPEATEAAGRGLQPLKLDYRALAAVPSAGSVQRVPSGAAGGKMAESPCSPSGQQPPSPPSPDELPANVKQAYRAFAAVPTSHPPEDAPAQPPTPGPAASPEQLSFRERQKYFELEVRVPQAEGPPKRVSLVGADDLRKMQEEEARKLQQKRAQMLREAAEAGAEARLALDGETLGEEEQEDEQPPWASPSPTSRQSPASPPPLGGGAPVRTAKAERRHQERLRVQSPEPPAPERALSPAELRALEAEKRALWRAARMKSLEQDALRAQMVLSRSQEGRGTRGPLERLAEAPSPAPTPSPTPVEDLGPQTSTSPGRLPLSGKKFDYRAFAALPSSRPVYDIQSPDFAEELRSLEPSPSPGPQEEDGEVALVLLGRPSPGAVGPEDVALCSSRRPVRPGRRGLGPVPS

Targets include FLAG-OTULIN^ΔPBM (UniProt Q96BN8); FLAG-OTULIN^C105X (UniProt Q96BN8); FLAG-OTULIN^W96R (UniProt Q96BN8); FLAG-OTULIN^Δ54 (UniProt Q96BN8).
Holding throughout (assay): affinity purification with mass spectrometry; FLAG-tagged OTULIN baits stably expressed in HEK293 cells; cleared lysates (50 mM HEPES-KOH pH 8.0, 100 mM KCl, 2 mM EDTA, 0.1% NP40, 10% glycerol) on anti-FLAG M2 magnetic beads for 2 h; on-bead trypsin digestion, LC-MS/MS, SAINT against FLAG-vector controls; endogenous preys
Test [1] concerns the target FLAG-tagged full-length OTULIN (WT) (UniProt Q96BN8).
For test [2] the target is unchanged. This is another data set of the same source.

Where two headings read alike, the source gives them in different places. Results are given in words; binding and its absence hold for the method and conditions named. In cells and extracts the contact can be indirect. Here binding means that the protein was enriched with, or labelled near, the bait; the list need not be complete. For some of these results: A no says only that the protein was not detected with the bait.

“SLC9A3R2, endogenous (from UniProt Q15599 1-337)”: the results for the binding entry (with FLAG-OTULIN^ΔPBM; in the test with FLAG-OTULIN^C105X; in test [1]) were “no binding”, “no binding” and “binds”, respectively.
For “scribble (SCRIB), endogenous (from UniProt Q14160 1-1655)”, the binding entry in the test with FLAG-OTULIN^W96R is “binds”; with FLAG-OTULIN^ΔPBM, “no binding”; in the test with FLAG-OTULIN^C105X, “no binding”; in test [1], “binds”; with FLAG-OTULIN^Δ54 it was “binds”.

B1: GTP-binding protein Arfrp1, endogenous (protein, UniProt Q13795 1-201)
chain: MYTLLSGLYKYMFQKDEYCILILGLDNAGKTTFLEQSKTRFNKNYKGMSLSKITTTVGLNIGTVDVGKARLMFWDLGGQEELQSLWDKYYAECHGVIYVIDSTDEERLAESKQAFEKVVTSEALCGVPVLVLANKQDVETCLSIPDIKTAFSDCTSKIGRRDCLTQACSALTGKGVREGIEWMVKCVVRNVHRPPRQRDIT
For B1, the binding result in test [2] is listed as “no binding”.

B2: coat protein complex II (COPII) component Sec24b, endogenous (protein, UniProt O95487 1-1268)
chain: MSAPAGSSHPAASARIPPKFGGAAVSGAAAPAGPGAGPAPHQQNGPAQNQMQVPSGYGLHHQNYIAPSGHYSQGPGKMTSLPLDTQCGDYYSALYTVPTQNVTPNTVNQQPGAQQLYSRGPPAPHIVGSTLGSFQGAASSASHLHTSASQPYSSFVNHYNSPAMYSASSSVASQGFPSTCGHYAMSTVSNAAYPSVSYPSLPAGDTYGQMFTSQNAPTVRPVKDNSFSGQNTAISHPSPLPPLPSQQHHQQQSLSGYSTLTWSSPGLPSTQDNLIRNHTGSLAVANNNPTITVADSLSCPVMQNVQPPKSSPVVSTVLSGSSGSSSTRTPPTANHPVEPVTSVTQPSELLQQKGVQYGEYVNNQASSAPTPLSSTSDDEEEEEEDEEAGVDSSSTTSSASPMPNSYDALEGGSYPDMLSSSASSPAPDPAPEPDPASAPAPASAPAPVVPQPSKMAKPFGYGYPTLQPGYQNATAPLISGVQPSNPVYSGFQQYPQQYPGVNQLSSSIGGLSLQSSPQPESLRPVNLTQERNILPMTPVWAPVPNLNADLKKLNCSPDSFRCTLTNIPQTQALLNKAKLPLGLLLHPFRDLTQLPVITSNTIVRCRSCRTYINPFVSFIDQRRWKCNLCYRVNDVPEEFMYNPLTRSYGEPHKRPEVQNSTVEFIASSDYMLRPPQPAVYLFVLDVSHNAVEAGYLTILCQSLLENLDKLPGDSRTRIGFMTFDSTIHFYNLQEGLSQPQMLIVSDIDDVFLPTPDSLLVNLYESKELIKDLLNALPNMFTNTRETHSALGPALQAAFKLMSPTGGRVSVFQTQLPSLGAGLLQSREDPNQRSSTKVVQHLGPATDFYKKLALDCSGQQTAVDLFLLSSQYSDLASLACMSKYSAGCIYYYPSFHYTHNPSQAEKLQKDLKRYLTRKIGFEAVMRIRCTKGLSMHTFHGNFFVRSTDLLSLANINPDAGFAVQLSIEESLTDTSLVCFQTALLYTSSKGERRIRVHTLCLPVVSSLADVYAGVDVQAAICLLANMAVDRSVSSSLSDARDALVNAVVDSLSAYGSTVSNLQHSALMAPSSLKLFPLYVLALLKQKAFRTGTSTRLDDRVYAMCQIKSQPLVHLMKMIHPNLYRIDRLTDEGAVHVNDRIVPQPPLQKLSAEKLTREGAFLMDCGSVFYIWVGKGCDNNFIEDVLGYTNFASIPQKMTHLPELDTLSSERARSFITWLRDSRPLSPILHIVKDESPAKAEFFQHLIEDRTEAAFSYYEFLLHVQQQICK
Consider B2, for which the binding result in test [2] is given as “no binding”.
